Measured values from PubChem BioAssay AID1347076 (National Center for Advancing Translational Sciences (NCATS), 2019).
About 13,000 (3.2%) of roughly 400,000 compounds were called active. The inconclusive results got no clear call from the source; some entries with a clear call stand among them for comparison. The call rests on the fitted dose curve; in most records, active means well fitted cell-killing curve with a large enough effect; inconclusive means small, poorly fitted or top-dose-only effect, or effect the other way; inactive means flat fitted curve, though single readings scatter. Potencies of inconclusive entries are doubtful fits and often do not repeat.
On the % scale 0 is the no-effect control and ±100 the full control effect; potency means the concentration at half of the fitted maximal effect.

Assay: qHTS assay for MDR1-selective chemotherapeutics: Primary screen using the drug-selected MDR subline cells KB-V1; further: nearly all actives have a fitted effect of over 60% in size
Settings: KB-V1 MDR cells viability, CellTiter-Glo, 72 h; activity change, negative = cytotoxicity: at 46.1 µM (top of the series)
Outline: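 Readout: CellTiter-Glo luminescence, 10 min after addition. Cells: KB-V1 MDR subline, 72 h at 37 degrees C with compound. Analysis: corrected, normalized data fitted to concentration-effect curves.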
For Cc1sc(NC(=O)CN(Cc2ccc(F)cc2)C(=O)C(C)C)c(C(N)=O)c1C, the Potency was inconclusive: 8.2 µM [cytotoxic, partial curve, poor fit].
With CC1=C(C(=O)Nc2cc(Cl)ccc2C)C(c2cccs2)n2ncnc2N1 (centres undefined) the Potency was inconclusive: 9.2 µM [rising, partial curve].
With COc1cc(NC(=O)COC(=O)Cc2ccsc2)cc(OC)c1 the Potency was inconclusive: 29.1 µM [cytotoxic, single point].
For CCN(CC)C(=O)CSc1nnc(-c2cccc(OC)c2)o1, the Potency was active: 11.6 µM.
With CCOc1ccccc1/C=N\Nc1cnn(Cc2ccccc2)c(=O)c1Cl the “activity change, negative = cytotoxicity” value was inactive: -26%.
With COCCN(C(=O)CSc1nnc(-c2cccc(F)c2)n1N)c1c(N)n(CC(C)C)c(=O)[nH]c1=O the “activity change, negative = cytotoxicity” value was inactive: -16.5%.
In the case of Cn1c(CC(=O)Nc2ccc(F)cc2)nnc1SCC(=O)Nc1nncs1, the Potency is reported as inconclusive: 29.1 µM [rising, single point].
With CC(C)(C)c1cc(C(=O)NNc2cccc(Cl)c2)n(Cc2ccccc2)n1 the Potency was inconclusive: 23.1 µM [cytotoxic, single point].
With CCc1nnc(NC(=O)Nc2ccc(OC)cc2)s1 the Potency was inconclusive: 20.6 µM [cytotoxic, single point].
For COc1cc(NC(=O)CCCOc2cc(=O)n(C)c3ccccc23)cc(OC)c1OC, the “activity change, negative = cytotoxicity” value was inactive: 28.2%.
With Cc1nnc(NC(=O)CSc2nnc3scc(-c4ccc(C)c(C)c4)n23)s1 the Potency was active: 20.6 µM.
In the case of O=C(NCCC1CCCCN1S(=O)(=O)c1cccs1)C(=O)NCc1ccccc1 (centres undefined), the Potency is reported as active: 14.6 µM.
For O=S(=O)(c1cccs1)N1CCN(Cc2nc3ccccc3s2)CC1, the Potency was active: 23.1 µM.
For CCOC(=O)c1ccc(Oc2cc(C)nc(SC)n2)cc1, the Potency was active: 9.2 µM.
With CC(=O)c1c(C)oc2c1cc(NS(=O)(=O)c1ccc(Cl)c(C)c1)c1ccccc12 the “activity change, negative = cytotoxicity” value was inactive: -30.1%.
For CCNc1c([N+](=O)[O-])c(=O)n(CC)c2ccccc12, the Potency was inconclusive: 25.9 µM [rising, partial curve, poor fit].
For CN(C)S(=O)(=O)c1cccc(NC(=O)c2ccc(S(=O)(=O)N3CCCC3)cc2)c1, the Potency was inconclusive: 16.4 µM [cytotoxic, single point].
For COCc1nnc(NC(C)=O)s1, the “activity change, negative = cytotoxicity” value was inactive: 21.8%.
With O=C(/C=C/c1cccc(Cl)c1)NCCc1ccccc1 the Potency was inconclusive: 25.9 µM [cytotoxic, single point].
For Cc1nnc(NC(=O)CSc2nnc(CCNC(=O)c3ccccc3F)n2C)s1, the “activity change, negative = cytotoxicity” value was inactive: -7.12%.
For O=C(Nc1ccc(Cl)cc1)C(NS(=O)(=O)c1cccs1)c1ccccc1 (centres undefined), the “activity change, negative = cytotoxicity” value was inactive: 6.76%.
In the case of C/C(CC(=O)N1CCN(C=O)CC1)=N\NC(=O)c1cc2ccccc2cc1O, the Potency is reported as inconclusive: 29.1 µM [cytotoxic, single point].
With O=C(Nc1ccc(Br)cc1)c1cc([N+](=O)[O-])cc([N+](=O)[O-])c1 the Potency was inconclusive: 16.4 µM [cytotoxic, single point].
With Cc1ccc(NC(=O)CSc2nc(O)cc(=O)n2C)cc1 the Potency was inconclusive: 18.4 µM [rising, partial curve, poor fit].
For COc1ccccc1NC(=O)NNC(=O)CCN1CCOCC1, the Potency was inconclusive: 29.1 µM [rising, single point].
For CC(=O)c1ccc(N2C(=O)C3C(C2=O)C(C(=O)c2ccc(Cl)cc2)N2CCCC32)cc1 (centres undefined), the Potency was inconclusive: 25.9 µM [cytotoxic, single point].
For CCOC(=O)c1cnc(-n2nc(C)cc2C)nc1NC1CCCCC1, the Potency was active: 8.2 µM.
In the case of COc1ccc(S(=O)(=O)N2CC(O)C[C@H]2C(=O)OCC(=O)N2CCCCCC2)cc1 (some centres undefined), the Potency is reported as inconclusive: 16.4 µM [rising, partial curve].
In the case of CCc1cccc(C)c1NC(=O)CN(C)Cc1ccccc1F, the Potency is reported as active: 20.6 µM.
In the case of COc1ccc(Cl)cc1C(=O)Nn1cnc2ccccc2c1=O, the Potency is reported as inconclusive: 16.4 µM [cytotoxic, partial curve, poor fit].
In the case of Cc1nnc(NC(=O)c2ccccc2)s1, the Potency is reported as inconclusive: 29.1 µM [rising, single point].
For CC1(C)c2ssc(=S)c2-c2ccccc2N1C(=O)c1ccco1, the Potency was inconclusive: 23.1 µM [cytotoxic, single point].
For c1ccc(C(NCCNC(c2ccccc2)c2ccccc2)c2ccccc2)cc1, the “activity change, negative = cytotoxicity” value was inactive: 24.1%.
In the case of CCCCC(c1nc2ccccc2[nH]1)n1c(=O)c(-c2ccccc2)nc2cc(C)c(C)cc21 (centres undefined), the Potency is reported as inconclusive: 29.1 µM [cytotoxic, single point].
With COc1cc(C(=O)Nc2ccc(NC(=O)c3ccccc3)nc2)cc(OC)c1OC the Potency was inconclusive: 23.1 µM [cytotoxic, single point].
In the case of Cc1nc(N2CCC(C)CC2)c2oc3ccccc3c2n1, the Potency is reported as active: 20.6 µM.
For COCCCN(C(=S)Nc1cc(Cl)cc(Cl)c1)C(C)c1ccncc1 (centres undefined), the Potency was inconclusive: 16.4 µM [cytotoxic, single point].
In the case of CCOc1ccc(NC(=O)CCNC(=O)c2ccc(Br)cc2)cc1, the Potency is reported as inconclusive: 6.51 µM [cytotoxic, partial curve].
For O=[N+]([O-])c1ccc(NC(=S)NCCc2ccc(Cl)cc2)cc1, the Potency was active: 16.4 µM.
For CCOC(=O)c1oc2cc(OC(C)=O)ccc2c(=O)c1-c1ccc(OC)c(OC)c1, the “activity change, negative = cytotoxicity” value was inactive: 2.9%.
In the case of Cc1noc(C)c1C(=O)NC1=NCCS1, the Potency is reported as inconclusive: 29.1 µM [rising, single point].
In the case of Cc1cc(NC(=O)CCNS(=O)(=O)c2cccc3nsnc23)ccc1Br, the “activity change, negative = cytotoxicity” value is reported as inactive: -18.3%.
In the case of COc1ccc(Nc2sc(C(=O)c3ccc(Cl)cc3)c(N)c2C(=O)Nc2ccccc2OC)cc1, the Potency is reported as inconclusive: 20.6 µM [cytotoxic, single point].
In the case of COC(=O)[C@H](NC(=O)c1cc([C@@H](NC(=O)OC(C)(C)C)C(C)C)sc1N)C(C)C, the Potency is reported as inconclusive: 10.3 µM [cytotoxic, partial curve].
In the case of CCCCOC(=O)CCc1nc2ccccc2[nH]c1=O, the “activity change, negative = cytotoxicity” value is reported as inactive: 0.959%.
With Cc1cccc2c3c([nH]c12)CCNC3 the “activity change, negative = cytotoxicity” value was inactive: -9.91%.
In the case of CCCCCc1cc(=O)oc2c(C(CCN3CCCC(C)C3)c3ccc4c(c3)OCO4)c(OC)cc(OC)c12 (centres undefined), the Potency is reported as inconclusive: 29.1 µM [cytotoxic, single point].
For COc1cccc(CC2(CO)CCN(S(=O)(=O)N(C)C)CC2)c1, the Potency was inconclusive: 32.6 µM [cytotoxic, single point].
With O=C(NNC(=O)c1ccco1)c1ccc(NS(=O)(=O)c2cccs2)cc1 the Potency was inconclusive: 29.1 µM [rising, single point].
In the case of CC(NC(=O)CSc1nc2ccccc2c(=O)n1CCCO)c1ccccc1 (centres undefined), the Potency is reported as inconclusive: 18.4 µM [cytotoxic, partial curve].
In the case of COc1ccc(NC(=O)NNC(=O)C(C)Oc2ccc(C(C)C)cc2)c(OC)c1 (centres undefined), the “activity change, negative = cytotoxicity” value is reported as inactive: -9.81%.
With Cc1nnsc1SCCNC(=O)Nc1ccc(Cl)cc1 the Potency was inconclusive: 18.4 µM [cytotoxic, single point].
For COc1cc(NC(=O)CSc2nnc3ccccn23)cc(OC)c1, the “activity change, negative = cytotoxicity” value was inactive: 0%.
For Cc1c(OC(C)C(=O)NCCCn2ccnc2)ccc2c3c(c(=O)oc12)CCC3 (centres undefined), the Potency was inconclusive: 8.2 µM [rising, partial curve, poor fit].
In the case of CC(c1nc2ccccc2[nH]1)N(C(=O)Cc1csc2ccccc12)c1cccnc1 (centres undefined), the “activity change, negative = cytotoxicity” value is reported as inactive: 23.4%.
In the case of CSCCC(NC(=O)COc1ccccc1)C(=O)N1CCN(c2ccccc2Cl)CC1 (centres undefined), the Potency is reported as inconclusive: 16.4 µM [cytotoxic, partial curve, poor fit].
For CCCOc1cccc(C(=O)Nc2cc(NC(=O)c3ccco3)ccc2OC)c1, the Potency was inconclusive: 29.1 µM [cytotoxic, single point].
For COc1ccc(NC(=O)CC2NCCNC2=O)c(OC)c1 (centres undefined), the “activity change, negative = cytotoxicity” value was inactive: 2.09%.
For CCCNC(=O)c1cn(CC)c2cc(N3CCN(C(=O)c4ccco4)CC3)c(F)cc2c1=O, the “activity change, negative = cytotoxicity” value was inactive: 17.4%.
In the case of O=c1[nH]c2ccccc2n1CCC1CCCCC1, the Potency is reported as active: 18.4 µM.
In the case of Cc1cc(C)n(-c2nc3ccccc3nc2N2CCN(c3cccc(C(F)(F)F)c3)CC2)n1, the “activity change, negative = cytotoxicity” value is reported as inactive: -4.23%.
With CCCn1c(CN2CCN(C(=O)OCC)CC2)nc2cc(NC(=O)CC)ccc21 the Potency was inconclusive: 20.6 µM [cytotoxic, single point].
With O=C(NCc1ccccc1Cl)c1ccc2oc(=O)n(Cc3ccccc3)c2c1 the “activity change, negative = cytotoxicity” value was inactive: -16.8%.
In the case of Cc1ccc(C)c(S(=O)(=O)N2CCN(C(=O)c3ccc(C)s3)CC2)c1, the Potency is reported as inconclusive: 7.31 µM [cytotoxic, partial curve].
In the case of COc1cccc(NC(=O)c2ccc(S(=O)(=O)NCc3cccnc3)cc2)c1, the Potency is reported as active: 18.4 µM.
With Cc1cc(C)nc(N/N=C/c2ccco2)n1 the “activity change, negative = cytotoxicity” value was inactive: 7.18%.
In the case of Clc1ccccc1Cn1c(/C=C/c2ccco2)nc2ccccc21, the Potency is reported as active: 13 µM.
With COc1cc(Cl)ccc1OCc1cc(C(=O)NCCCN2CCCC2=O)no1 the “activity change, negative = cytotoxicity” value was inactive: -10.8%.
In the case of Cc1ccc(C(=O)Nc2cc(Cl)ccc2N2CCCCC2)s1, the Potency is reported as inconclusive: 20.6 µM [cytotoxic, partial curve].
In the case of O=C(CSc1nc(-c2ccccc2)c(-c2ccccc2)[nH]1)NCCN1C(=O)CSC1=O, the Potency is reported as inconclusive: 16.4 µM [cytotoxic, partial curve].
For O=C(O)c1ccc(B(O)O)cc1, the Potency was inconclusive: 20.6 µM [rising, partial curve, poor fit].
In the case of O=C(O)CCCNc1cc(N2CCN(C(=O)c3ccco3)CC2)c2noc3c2c1C(=O)c1ccccc1-3, the Potency is reported as inconclusive: 3.26 µM [rising, full curve, poor fit].
With CN(CC(=O)Nc1ccccc1Br)C(=O)c1ccccc1OCc1ccccc1Cl the Potency was inconclusive: 16.4 µM [cytotoxic, partial curve].
For CN1C(=O)NC(=O)C1c1ccccc1 (centres undefined), the Potency was inconclusive: 2.91 µM [rising, full curve, poor fit].
